This is a selection; strong and weak results do not stand in their true shares. At the low end of the ranking, values are background and their order means little.

The experiment concerns the target SPI1 (UniProt P17947). Description: DAPPL (digital affinity profiling via proximity ligation, sequencing). The settings on record: 10 mM Tris-HCl pH 7.5, 50 mM NaCl, 1 mM DTT, 4% glycerol, room temperature, 30 min; GST-TFs on glutathione beads, 16-mer random dsDNA library, 0.1% …; high values mean tight binding; double strand, one strand shown; scale: fold enrichment (6-mer frequency, TF over GST control).
In turn, CAAGTT returned a binding signal of 0.993.

With AGTGCC, the binding signal stood at 1.32.

With CACCTG, the binding signal came out at 0.988.

Sequence TAGCAT showed a binding signal of 1.07.

TGTGCG yielded a binding signal of 0.924.

GTCCGC: the binding signal was found to be 0.931.

The sequence CAGAAA registered a binding signal of 0.998.

In turn, TCGAGT returned a binding signal of 0.947.

GCTATG had a binding signal of 1.13.

CCCGCT showed a binding signal of 1.37.

TCAAGG had a binding signal of 0.988.

CGGAAC yielded a binding signal of 1.29.

Regarding GTGCTG, the binding signal was 0.946.

In turn, TCGCGT came in with a binding signal of 1.

The sequence CCATAG gave a binding signal of 0.84.

Sequence GAAAGT had a binding signal of 0.898.

Turning to TCCGCC, the binding signal came to 1.48.

With TATAAA, the binding signal was 1.26.

GCTAGG showed a binding signal of 0.882.

Sequence CGTCGA returned a binding signal of 0.91.

AGAATG came in with a binding signal of 1.01.

In turn, CCGAGC registered a binding signal of 1.12.

Regarding TCTAGG, the binding signal came to 0.996.

GATCGA: the binding signal was 0.876.

On to CTATCA, for which the binding signal came out at 1.01.

Regarding TCCAAA, the binding signal is 1.12.

Consider GGCTAC, for which the binding signal is 0.954.

TCTTCC yielded a binding signal of 2.46.

TTACAG displayed a binding signal of 1.11.

GGCATT gave a binding signal of 1.05.

In turn, GCTTAC registered a binding signal of 1.12.

Consider GACATG, for which the binding signal came to 0.95.

For the sequence AAAATA, the binding signal amounted to 1.18.

As to TTATAT, the binding signal was 1.32.

With GCCTGT, the binding signal is 0.889.

On to ACAGAA, for which the binding signal was 0.982.

Consider CAGTAT, for which the binding signal was determined as 0.929.

In turn, CACCCA displayed a binding signal of 0.968.

The values are drawn from paper PMC7862700.
